The other results are listed elsewhere or left out. The data scatter; read single values as rough.
Experiments:
[1] = compound: ClCC(=O)N[C@@H]1CCCc2ccccc12; experiment: log2 mean competition ratio of IA-DTB cysteine labelling (DMSO/compound) (log2 ratio); higher = stronger cysteine engagement by compound; settings: treatment time: 4 h, cell line lysate: HEK293T
Experimental: (§1)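 IA-DTB competitive cysteine chemoproteomics in HEK293T RIPA lysate. Lysates were treated with compound 29 or 30 at 50 or 200 µM for 4 h, then IA-DTB (500 µM, 1 h), trypsin-digested, NeutrAvidin-enriched and analysed by diaPASEF. Competition ratio = intensity DMSO / intensity compound (n=4 treated, n=64 DMSO); binding: mean log2 CR ≥ 1 and p ≤ 0.05 plus QC filters. Target is the cysteine site.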

Chains of the proteins cited; added tags and fusions are not shown. Lines headed by an entry give the natural chain unless they say otherwise; changes in a name come on top. Residues count along the entry.
UniProt Q8IY21: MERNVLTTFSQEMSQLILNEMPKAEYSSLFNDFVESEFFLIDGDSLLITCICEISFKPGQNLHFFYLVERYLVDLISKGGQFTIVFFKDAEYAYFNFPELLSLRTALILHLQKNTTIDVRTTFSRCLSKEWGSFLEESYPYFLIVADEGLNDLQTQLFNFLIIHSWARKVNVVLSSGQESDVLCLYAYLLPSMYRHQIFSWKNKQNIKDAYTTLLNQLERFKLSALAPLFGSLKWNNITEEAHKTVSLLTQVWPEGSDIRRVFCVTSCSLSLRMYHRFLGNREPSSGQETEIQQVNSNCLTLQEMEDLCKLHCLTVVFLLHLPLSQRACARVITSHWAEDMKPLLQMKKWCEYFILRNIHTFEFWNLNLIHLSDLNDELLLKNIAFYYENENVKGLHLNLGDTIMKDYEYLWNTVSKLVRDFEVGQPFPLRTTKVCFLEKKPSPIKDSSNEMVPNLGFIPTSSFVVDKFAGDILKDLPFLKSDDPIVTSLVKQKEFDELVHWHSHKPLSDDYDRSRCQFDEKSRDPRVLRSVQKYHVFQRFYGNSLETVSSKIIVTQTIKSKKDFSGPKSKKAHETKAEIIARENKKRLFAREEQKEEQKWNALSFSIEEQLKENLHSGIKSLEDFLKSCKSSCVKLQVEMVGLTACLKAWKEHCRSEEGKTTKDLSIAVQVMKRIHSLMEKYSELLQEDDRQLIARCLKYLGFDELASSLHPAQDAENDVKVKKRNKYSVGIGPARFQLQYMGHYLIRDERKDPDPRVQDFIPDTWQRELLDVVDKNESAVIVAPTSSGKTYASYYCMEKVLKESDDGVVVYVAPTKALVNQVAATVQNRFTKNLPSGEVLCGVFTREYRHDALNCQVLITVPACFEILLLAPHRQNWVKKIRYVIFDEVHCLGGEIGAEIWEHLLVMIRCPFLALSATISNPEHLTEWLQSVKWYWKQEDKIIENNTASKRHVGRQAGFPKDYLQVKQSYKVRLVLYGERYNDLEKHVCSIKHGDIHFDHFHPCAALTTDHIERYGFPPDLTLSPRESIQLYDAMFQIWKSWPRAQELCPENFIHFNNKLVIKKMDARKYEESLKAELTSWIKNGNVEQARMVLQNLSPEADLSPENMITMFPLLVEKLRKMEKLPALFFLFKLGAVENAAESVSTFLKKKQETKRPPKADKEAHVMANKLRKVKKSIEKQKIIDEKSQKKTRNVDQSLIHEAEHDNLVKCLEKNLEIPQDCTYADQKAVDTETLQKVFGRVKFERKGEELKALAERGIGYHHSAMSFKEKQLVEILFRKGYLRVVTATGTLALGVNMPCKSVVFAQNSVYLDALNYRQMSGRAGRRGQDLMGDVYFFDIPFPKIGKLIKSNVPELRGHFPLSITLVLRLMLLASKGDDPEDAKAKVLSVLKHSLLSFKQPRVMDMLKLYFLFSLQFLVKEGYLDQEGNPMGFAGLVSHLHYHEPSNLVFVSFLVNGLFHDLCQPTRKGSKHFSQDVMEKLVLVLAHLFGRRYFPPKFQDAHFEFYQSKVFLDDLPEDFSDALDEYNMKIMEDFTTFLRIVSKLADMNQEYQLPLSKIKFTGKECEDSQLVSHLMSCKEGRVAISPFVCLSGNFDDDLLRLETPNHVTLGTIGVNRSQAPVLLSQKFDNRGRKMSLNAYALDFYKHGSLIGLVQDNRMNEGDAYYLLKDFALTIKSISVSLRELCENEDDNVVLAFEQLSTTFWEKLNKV
UniProt Q9NR30: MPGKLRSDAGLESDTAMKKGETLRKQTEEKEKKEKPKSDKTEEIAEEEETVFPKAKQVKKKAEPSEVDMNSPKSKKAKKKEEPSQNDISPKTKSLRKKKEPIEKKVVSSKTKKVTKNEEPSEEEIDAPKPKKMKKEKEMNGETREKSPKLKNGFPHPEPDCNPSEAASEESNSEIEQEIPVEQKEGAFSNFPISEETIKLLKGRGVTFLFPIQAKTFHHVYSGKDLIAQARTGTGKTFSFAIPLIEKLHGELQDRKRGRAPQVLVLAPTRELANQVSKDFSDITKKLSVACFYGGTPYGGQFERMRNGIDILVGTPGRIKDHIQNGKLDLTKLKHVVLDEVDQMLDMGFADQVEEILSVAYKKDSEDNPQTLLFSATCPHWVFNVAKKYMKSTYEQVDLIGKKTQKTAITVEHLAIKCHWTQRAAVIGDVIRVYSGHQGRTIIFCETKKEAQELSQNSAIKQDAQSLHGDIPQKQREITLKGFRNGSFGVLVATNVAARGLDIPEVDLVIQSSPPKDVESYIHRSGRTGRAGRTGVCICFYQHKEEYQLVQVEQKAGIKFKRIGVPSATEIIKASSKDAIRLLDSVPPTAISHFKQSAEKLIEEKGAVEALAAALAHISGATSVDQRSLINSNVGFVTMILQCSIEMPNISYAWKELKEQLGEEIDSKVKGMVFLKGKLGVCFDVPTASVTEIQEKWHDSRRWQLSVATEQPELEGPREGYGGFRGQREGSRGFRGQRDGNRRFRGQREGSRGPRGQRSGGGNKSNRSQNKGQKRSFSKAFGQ
UniProt Q9UHI6: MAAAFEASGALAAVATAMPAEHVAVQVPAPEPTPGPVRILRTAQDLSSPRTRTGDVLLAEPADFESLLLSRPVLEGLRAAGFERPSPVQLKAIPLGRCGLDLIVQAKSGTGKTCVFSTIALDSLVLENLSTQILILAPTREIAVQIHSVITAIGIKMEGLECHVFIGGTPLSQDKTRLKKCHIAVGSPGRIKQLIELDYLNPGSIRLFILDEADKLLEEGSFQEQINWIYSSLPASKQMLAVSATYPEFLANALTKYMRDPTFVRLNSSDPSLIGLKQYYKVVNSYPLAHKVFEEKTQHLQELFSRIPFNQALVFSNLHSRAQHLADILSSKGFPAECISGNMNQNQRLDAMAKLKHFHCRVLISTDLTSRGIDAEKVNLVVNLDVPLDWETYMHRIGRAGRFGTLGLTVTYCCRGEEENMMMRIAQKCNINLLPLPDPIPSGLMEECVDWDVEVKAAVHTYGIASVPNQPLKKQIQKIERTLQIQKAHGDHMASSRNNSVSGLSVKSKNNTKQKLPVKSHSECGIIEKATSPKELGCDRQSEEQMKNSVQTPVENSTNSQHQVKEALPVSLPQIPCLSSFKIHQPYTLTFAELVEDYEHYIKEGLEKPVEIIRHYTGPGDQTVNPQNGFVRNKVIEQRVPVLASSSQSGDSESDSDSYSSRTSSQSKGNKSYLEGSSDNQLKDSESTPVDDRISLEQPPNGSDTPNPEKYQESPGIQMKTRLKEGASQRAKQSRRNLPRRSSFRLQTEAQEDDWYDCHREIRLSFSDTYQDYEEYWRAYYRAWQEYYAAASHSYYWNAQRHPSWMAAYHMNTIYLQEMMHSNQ
UniProt Q8NCG7: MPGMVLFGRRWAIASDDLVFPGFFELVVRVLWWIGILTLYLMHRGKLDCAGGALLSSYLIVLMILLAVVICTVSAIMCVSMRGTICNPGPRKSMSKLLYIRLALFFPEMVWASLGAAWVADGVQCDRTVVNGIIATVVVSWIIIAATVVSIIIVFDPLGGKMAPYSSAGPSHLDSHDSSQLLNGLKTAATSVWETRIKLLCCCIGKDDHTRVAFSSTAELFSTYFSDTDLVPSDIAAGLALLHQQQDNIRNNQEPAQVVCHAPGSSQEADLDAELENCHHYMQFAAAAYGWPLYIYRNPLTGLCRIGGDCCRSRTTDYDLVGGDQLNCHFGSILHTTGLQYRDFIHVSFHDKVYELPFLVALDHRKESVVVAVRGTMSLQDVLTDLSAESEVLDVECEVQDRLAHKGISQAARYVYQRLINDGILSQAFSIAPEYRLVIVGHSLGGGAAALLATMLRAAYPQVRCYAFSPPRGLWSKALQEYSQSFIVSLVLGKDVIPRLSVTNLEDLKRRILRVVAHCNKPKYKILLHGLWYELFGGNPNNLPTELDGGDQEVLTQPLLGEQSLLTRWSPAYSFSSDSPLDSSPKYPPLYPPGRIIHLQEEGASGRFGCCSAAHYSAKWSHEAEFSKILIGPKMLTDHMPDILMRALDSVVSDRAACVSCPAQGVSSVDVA
UniProt Q96JK2: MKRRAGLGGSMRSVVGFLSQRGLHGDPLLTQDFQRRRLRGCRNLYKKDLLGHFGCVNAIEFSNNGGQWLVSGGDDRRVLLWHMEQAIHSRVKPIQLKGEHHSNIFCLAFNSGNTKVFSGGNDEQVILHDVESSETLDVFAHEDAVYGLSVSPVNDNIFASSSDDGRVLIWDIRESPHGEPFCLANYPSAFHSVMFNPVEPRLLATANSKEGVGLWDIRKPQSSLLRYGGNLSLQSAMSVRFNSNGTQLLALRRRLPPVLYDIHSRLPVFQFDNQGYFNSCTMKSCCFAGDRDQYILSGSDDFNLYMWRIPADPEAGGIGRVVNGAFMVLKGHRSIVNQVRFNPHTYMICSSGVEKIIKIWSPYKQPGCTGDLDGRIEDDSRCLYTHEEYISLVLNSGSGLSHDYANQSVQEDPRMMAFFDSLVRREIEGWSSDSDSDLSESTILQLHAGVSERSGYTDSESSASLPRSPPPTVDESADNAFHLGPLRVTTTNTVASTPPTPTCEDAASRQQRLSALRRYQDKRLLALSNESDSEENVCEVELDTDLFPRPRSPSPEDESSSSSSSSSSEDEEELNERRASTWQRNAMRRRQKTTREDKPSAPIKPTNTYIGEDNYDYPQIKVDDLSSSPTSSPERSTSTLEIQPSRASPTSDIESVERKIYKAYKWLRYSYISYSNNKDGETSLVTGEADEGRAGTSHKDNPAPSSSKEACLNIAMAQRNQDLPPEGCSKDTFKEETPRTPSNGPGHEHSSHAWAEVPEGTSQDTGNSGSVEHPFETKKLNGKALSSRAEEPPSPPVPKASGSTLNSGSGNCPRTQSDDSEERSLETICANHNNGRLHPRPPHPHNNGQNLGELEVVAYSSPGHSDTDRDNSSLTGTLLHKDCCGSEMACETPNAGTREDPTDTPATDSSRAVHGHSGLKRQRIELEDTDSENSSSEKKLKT
UniProt Q8IWE4, 58-77: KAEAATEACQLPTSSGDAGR
UniProt Q8WVC6: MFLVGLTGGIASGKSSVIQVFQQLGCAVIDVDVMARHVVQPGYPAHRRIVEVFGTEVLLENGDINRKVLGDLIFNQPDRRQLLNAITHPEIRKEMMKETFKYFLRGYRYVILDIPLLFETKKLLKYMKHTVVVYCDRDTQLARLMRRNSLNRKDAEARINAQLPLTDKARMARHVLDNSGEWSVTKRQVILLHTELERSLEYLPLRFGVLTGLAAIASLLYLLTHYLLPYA
UniProt Q96F07, whole entry, looked up: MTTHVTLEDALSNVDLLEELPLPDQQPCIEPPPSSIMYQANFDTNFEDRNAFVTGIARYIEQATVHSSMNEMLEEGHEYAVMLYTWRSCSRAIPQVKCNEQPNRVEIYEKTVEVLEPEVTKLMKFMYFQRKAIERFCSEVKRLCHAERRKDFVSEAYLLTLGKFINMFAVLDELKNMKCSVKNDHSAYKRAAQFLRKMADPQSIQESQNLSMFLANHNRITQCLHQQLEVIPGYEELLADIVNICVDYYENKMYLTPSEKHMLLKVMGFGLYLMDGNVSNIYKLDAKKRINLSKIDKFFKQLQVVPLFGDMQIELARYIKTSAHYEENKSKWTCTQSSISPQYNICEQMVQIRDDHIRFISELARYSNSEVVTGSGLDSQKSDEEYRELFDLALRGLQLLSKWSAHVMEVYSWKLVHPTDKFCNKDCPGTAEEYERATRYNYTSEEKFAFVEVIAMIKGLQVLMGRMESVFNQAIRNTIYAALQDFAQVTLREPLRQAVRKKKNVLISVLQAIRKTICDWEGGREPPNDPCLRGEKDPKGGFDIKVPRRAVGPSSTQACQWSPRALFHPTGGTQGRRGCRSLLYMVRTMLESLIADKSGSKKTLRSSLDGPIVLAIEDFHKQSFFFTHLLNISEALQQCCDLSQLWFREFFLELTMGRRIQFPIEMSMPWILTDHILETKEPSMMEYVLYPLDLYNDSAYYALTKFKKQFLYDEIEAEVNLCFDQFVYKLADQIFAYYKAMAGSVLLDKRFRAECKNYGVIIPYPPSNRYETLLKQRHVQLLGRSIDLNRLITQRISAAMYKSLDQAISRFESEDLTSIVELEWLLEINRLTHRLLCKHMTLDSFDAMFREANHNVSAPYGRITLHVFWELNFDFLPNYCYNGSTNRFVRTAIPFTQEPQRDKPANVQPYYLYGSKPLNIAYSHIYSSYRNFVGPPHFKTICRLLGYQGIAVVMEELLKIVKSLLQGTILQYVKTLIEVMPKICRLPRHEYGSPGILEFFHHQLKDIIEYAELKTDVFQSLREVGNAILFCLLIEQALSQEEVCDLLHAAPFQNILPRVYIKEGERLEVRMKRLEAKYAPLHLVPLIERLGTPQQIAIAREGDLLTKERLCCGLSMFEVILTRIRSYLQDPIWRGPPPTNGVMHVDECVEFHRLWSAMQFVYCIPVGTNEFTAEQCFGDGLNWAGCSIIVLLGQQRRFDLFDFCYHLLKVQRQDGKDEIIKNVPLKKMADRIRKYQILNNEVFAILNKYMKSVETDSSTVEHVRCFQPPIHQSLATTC
UniProt O75398, 387-417: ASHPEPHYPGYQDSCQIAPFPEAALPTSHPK

[2] = compound: ClCC(=O)N[C@H]1CCCc2ccccc12; experiment: as above; settings: treatment time: 4 h, cell line lysate: HEK293T
Experimental: as §1

| Target | log2 mean competition ratio ([1]; 50 µM) | log2 mean competition ratio ([1]; 200 µM) | log2 mean competition ratio ([2]; 50 µM) | log2 mean competition ratio ([2]; 200 µM) |
| --- | --- | --- | --- | --- |
| DCTN1 C636 (UniProt Q14203) | -0.221 | 0.0324 | -0.697 | -0.113 |
| CTNNB1 C466 (UniProt P35222) | -0.385 | 0.232 | -0.505 | 0.185 |
| DCTD C40 | -0.000254 | 0.226 | -0.401 | 0.0178 |
| CYFIP1 C519 | -0.136 | -0.084 | -0.848 | -0.137 |
| CRTAP C317 (UniProt O75718) | 0.245 | 0.0263 | 0.171 | 0.0803 |
| CTTNBP2 C1494 | 0.235 | 0.266 | 0.317 | 0.451 |
| CUL2 C232 (UniProt Q13617) | -0.546 | 0.0463 | -0.259 | -0.153 |
| CUL4B C637 | 0.275 | -0.248 | 0.187 | -0.423 |
| DDX60 C1224 (UniProt Q8IY21) | -0.0116 | -0.398 | 0.174 | -0.142 |
| CRYBG3 C1804 (UniProt Q68DQ2) | -0.155 | -0.00607 | 0.327 | -0.0946 |
| DDX5 C221 (UniProt P17844) | -0.4 | -0.039 | 0.0609 | -0.139 |
| DDX21 C445 (UniProt Q9NR30) | -0.0439 | -0.271 | 0.23 | -0.0752 |
| DDX50 C396 (UniProt Q9BQ39) | -0.151 | -0.224 | 0.174 | -0.0884 |
| DDX20 C524 (UniProt Q9UHI6) | -0.171 | 0.239 | -0.251 | 0.188 |
| DCLRE1A C649 | 0.0503 | 0.211 | -0.107 | -0.0237 |
| DAGLB C86 (UniProt Q8NCG7) | -0.0443 | -0.0715 | -0.287 | -0.218 |
| DCAF5 C829 (UniProt Q96JK2) | 0.0632 | 0.106 | -0.0338 | 0.187 |
| DCUN1D3 C66 (UniProt Q8IWE4) | 0.18 | -0.202 | -0.0202 | -0.218 |
| CTPS2 C216 (UniProt Q9NRF8) | 0.0637 | 0.0866 | -0.0162 | 0.273 |
| DDX17 C584 (UniProt Q92841) | -0.00797 | 0.296 | 0.0108 | 0.385 |
| DCAKD C135 (UniProt Q8WVC6) | -0.114 | 0.437 | 0.0139 | -0.109 |
| DDX20 C338 (UniProt Q9UHI6) | 0.169 | -0.165 | 0.172 | -0.28 |
| CYFIP2 C427 (UniProt Q96F07) | -0.15 | -0.207 | -0.239 | -0.109 |
| CXXC1 C580 (UniProt Q9P0U4) | -0.171 | 0.326 | 0.0522 | 0.302 |
| DEAF1 C401 (UniProt O75398) | 0.117 | 0.175 | -0.242 | 0.0341 |

An excerpt of these results, as tab-separated lines.
Target	log2 mean competition ratio ([1]; 50 µM)	log2 mean competition ratio ([1]; 200 µM)	log2 mean competition ratio ([2]; 50 µM)	log2 mean competition ratio ([2]; 200 µM)
DDX20 C338 (UniProt Q9UHI6)	0.169	-0.165	0.172	-0.28
CYFIP2 C427 (UniProt Q96F07)	-0.15	-0.207	-0.239	-0.109
CXXC1 C580 (UniProt Q9P0U4)	-0.171	0.326	0.0522	0.302
DEAF1 C401 (UniProt O75398)	0.117	0.175	-0.242	0.0341

Reference: the supplement of paper PMC11732987, “Enantioselective OTUD7B fragment discovery through chemoproteomics screening and high-throughput optimisation” (Communications Chemistry, 2025)
